This is an account of results in paper PMC6848142.

Chains of the proteins cited; added tags and fusions are not shown.
UniProt Q15836: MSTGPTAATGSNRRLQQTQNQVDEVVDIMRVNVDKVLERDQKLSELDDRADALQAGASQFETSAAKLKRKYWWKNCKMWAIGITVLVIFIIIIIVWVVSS
UniProt O00161: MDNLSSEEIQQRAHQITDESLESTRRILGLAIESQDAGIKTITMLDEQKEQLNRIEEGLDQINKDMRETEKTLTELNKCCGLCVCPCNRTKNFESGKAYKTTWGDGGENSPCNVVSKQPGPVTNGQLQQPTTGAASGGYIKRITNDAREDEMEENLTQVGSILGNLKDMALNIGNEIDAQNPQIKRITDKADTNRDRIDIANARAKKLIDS

No constants are given. Whether binding was seen depends on the method and setting. Binding seen in cells or lysates may run through a third protein. Some results given as binding are weak or reduced against the parent protein; the word gives no strength.

The target in the test is VAMP3 (endogenous) (human (endogenous in H23, A549, CHL1)) (UniProt Q15836). As to the kind of experiment: co-IP; endogenous RAS and SNARE proteins from A549 lysate.

Consider “SNAP23 (endogenous) (from UniProt O00161 1-211)”, for which the binding result is “binds”.
